Test results as given in PMC7548010.
Results are given in words; binding and its absence hold for the method and conditions named. In cells and extracts the contact can be indirect. Some entries that bind do so weakly or less than the wild type.

Chains of the proteins cited; added tags and fusions are not shown.
UniProt Q93009: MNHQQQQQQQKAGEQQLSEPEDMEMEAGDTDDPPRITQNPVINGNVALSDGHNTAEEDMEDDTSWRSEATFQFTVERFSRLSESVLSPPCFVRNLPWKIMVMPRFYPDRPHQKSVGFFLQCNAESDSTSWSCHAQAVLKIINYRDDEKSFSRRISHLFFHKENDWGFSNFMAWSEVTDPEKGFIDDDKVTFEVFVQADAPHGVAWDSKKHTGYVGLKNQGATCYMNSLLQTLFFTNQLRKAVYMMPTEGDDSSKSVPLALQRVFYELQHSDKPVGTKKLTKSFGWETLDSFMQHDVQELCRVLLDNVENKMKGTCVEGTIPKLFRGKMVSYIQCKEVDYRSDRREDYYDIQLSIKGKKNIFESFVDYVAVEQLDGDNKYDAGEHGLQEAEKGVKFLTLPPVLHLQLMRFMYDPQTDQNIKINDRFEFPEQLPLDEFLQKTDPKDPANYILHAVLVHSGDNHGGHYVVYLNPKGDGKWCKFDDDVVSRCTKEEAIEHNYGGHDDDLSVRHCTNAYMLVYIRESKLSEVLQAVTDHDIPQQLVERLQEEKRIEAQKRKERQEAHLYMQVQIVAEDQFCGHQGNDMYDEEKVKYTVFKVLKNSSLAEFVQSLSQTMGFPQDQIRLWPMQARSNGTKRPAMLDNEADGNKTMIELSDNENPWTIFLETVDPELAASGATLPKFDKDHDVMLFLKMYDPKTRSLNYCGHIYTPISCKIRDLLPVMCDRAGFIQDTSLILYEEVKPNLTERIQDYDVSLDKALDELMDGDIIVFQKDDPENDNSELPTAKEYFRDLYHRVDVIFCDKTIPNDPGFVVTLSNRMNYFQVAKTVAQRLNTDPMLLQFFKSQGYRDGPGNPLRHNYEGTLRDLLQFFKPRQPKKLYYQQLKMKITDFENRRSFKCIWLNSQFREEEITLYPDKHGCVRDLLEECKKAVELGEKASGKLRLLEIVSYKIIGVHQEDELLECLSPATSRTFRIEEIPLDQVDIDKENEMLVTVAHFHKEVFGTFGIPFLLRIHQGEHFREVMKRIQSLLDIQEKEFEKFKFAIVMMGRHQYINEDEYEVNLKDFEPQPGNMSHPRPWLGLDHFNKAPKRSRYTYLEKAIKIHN
UniProt Q14966: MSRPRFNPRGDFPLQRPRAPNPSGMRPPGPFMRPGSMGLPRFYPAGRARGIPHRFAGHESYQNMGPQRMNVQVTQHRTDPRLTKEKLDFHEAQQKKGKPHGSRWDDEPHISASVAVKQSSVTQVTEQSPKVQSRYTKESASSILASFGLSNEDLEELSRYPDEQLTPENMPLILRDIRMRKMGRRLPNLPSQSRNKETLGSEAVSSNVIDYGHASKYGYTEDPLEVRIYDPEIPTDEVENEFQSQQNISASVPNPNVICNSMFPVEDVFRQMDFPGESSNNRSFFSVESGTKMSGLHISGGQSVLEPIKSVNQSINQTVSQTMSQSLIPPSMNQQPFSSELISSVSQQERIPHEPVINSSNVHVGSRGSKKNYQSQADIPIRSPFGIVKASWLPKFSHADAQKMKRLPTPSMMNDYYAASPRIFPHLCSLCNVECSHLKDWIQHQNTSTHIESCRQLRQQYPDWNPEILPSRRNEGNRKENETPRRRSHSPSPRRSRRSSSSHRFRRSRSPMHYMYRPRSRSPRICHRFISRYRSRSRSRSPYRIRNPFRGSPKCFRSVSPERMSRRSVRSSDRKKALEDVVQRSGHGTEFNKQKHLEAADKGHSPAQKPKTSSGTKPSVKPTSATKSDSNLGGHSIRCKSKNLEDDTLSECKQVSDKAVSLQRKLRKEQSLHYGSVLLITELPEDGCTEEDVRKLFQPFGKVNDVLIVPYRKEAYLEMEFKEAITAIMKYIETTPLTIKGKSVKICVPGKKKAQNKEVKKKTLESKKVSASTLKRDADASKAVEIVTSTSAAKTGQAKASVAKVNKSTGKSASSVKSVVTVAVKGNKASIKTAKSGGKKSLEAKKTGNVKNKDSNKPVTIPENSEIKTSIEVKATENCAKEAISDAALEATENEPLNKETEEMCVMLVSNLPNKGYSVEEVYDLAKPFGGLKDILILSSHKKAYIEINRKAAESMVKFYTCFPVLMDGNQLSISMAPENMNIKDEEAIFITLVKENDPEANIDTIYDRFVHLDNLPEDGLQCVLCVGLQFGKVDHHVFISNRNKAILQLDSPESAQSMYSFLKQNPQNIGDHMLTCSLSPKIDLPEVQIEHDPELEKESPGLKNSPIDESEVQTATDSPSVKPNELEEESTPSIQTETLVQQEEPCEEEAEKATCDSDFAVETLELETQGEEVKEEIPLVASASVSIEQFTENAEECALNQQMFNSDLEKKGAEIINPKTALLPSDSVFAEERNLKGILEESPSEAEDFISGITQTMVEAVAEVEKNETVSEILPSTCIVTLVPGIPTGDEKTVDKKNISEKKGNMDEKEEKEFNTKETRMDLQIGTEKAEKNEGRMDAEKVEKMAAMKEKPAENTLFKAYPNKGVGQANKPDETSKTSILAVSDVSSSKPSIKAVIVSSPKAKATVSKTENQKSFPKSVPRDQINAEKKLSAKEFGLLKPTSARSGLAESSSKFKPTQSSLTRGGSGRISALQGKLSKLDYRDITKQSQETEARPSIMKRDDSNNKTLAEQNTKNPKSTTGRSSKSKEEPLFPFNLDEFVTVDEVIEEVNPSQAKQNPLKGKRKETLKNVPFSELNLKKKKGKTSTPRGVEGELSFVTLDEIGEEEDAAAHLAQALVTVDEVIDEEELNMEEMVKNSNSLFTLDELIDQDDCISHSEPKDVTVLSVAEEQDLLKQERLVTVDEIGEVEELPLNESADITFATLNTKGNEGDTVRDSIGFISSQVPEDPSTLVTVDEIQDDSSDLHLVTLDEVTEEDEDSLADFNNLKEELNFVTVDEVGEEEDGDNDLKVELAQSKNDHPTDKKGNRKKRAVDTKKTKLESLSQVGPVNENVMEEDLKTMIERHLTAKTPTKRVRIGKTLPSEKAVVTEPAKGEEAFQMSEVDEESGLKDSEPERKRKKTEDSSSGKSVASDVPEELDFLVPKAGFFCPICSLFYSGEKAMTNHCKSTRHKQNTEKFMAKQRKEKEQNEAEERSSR
UniProt P16220: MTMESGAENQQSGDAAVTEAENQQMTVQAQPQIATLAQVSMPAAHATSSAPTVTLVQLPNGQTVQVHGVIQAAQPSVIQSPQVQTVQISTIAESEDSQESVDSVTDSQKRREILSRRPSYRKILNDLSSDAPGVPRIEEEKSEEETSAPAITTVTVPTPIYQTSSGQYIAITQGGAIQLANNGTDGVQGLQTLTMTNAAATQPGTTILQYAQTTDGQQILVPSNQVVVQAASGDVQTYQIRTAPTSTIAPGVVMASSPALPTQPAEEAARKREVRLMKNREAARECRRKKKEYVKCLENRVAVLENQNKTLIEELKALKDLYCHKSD

Assays:
[1] = target: Ubiquitin-specific peptidase 7 (USP7) (human (endogenous in SK-Hep1 and Huh-7)) (UniProt Q93009); assay: co-IP; endogenous proteins, SK-Hep1 cells lysed in RIPA lysis buffer with protease inhibitors; immunoprecipitation with primary antibody and protein A/G agarose, immunoblotting
[2] = target: Ubiquitin-specific peptidase 7 (USP7) (human (endogenous in SK-Hep1 and Huh-7)) (UniProt Q93009); assay: co-IP; endogenous proteins, Huh-7 cells (Supplementary Fig. S1D); immunoprecipitation and immunoblotting
FLAG-USP7 full length = FLAG-USP7 full length (UniProt Q93009); assay: co-IP; Flag-USP7 or Flag-tagged truncated mutants (TRAF, CD, HUBL) transfected into SK-Hep1 cells; immunoprecipitation with flag antibody, immunoblotting for the endogenous partner
[3] = target: T1, full-length SREBP1C (sterol regulatory element binding protein) (human (endogenous in SK-Hep1)) (UniProt P36956); assay: co-IP; endogenous proteins, SK-Hep1 cells lysed in RIPA lysis buffer with protease inhibitors; immunoprecipitation with primary antibody and protein A/G agarose, immunoblotting
T1 sequence: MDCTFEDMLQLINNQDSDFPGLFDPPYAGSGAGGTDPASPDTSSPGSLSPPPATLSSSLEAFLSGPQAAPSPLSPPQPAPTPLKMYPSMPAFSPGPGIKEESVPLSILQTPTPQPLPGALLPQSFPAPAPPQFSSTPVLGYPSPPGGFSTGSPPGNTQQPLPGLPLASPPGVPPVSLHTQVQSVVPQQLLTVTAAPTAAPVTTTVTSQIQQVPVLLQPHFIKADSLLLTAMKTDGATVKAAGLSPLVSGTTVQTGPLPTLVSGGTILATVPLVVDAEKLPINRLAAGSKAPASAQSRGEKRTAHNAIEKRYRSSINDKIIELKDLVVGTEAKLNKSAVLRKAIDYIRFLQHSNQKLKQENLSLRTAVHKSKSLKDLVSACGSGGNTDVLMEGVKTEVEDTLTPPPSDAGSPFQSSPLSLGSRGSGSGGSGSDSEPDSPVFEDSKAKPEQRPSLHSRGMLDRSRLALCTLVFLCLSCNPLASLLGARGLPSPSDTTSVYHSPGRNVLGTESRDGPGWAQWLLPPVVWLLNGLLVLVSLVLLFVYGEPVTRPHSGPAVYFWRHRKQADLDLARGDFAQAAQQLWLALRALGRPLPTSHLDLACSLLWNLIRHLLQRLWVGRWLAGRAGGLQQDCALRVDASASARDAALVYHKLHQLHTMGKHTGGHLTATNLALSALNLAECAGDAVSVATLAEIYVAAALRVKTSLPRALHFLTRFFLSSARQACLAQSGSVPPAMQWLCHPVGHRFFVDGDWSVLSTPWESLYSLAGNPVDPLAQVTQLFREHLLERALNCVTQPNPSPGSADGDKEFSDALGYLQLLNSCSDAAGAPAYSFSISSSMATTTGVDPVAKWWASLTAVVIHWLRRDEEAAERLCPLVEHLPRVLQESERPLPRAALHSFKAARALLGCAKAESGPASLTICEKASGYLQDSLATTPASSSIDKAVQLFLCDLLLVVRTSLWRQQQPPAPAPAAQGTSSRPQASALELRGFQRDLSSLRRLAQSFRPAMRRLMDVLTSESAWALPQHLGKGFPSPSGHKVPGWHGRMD

[4] = target: Zinc finger protein 638 (ZNF638) (human (endogenous in SK-Hep1 and Huh-7)) (UniProt Q14966); assay: co-IP; endogenous proteins, Huh-7 cells (Supplementary Fig. S1D); immunoprecipitation and immunoblotting
[5] = target: Zinc finger protein 638 (ZNF638) (human (endogenous in SK-Hep1 and Huh-7)) (UniProt Q14966); assay: co-IP; endogenous proteins, SK-Hep1 cells lysed in RIPA lysis buffer with protease inhibitors; immunoprecipitation with primary antibody and protein A/G agarose, immunoblotting

Row | Substance | binding [1] | binding [2] | binding (FLAG-USP7 full length) | binding [3] | binding [4] | binding [5]
1 | cAMP responsive element binding protein (CREB) (from UniProt P16220 1-327) | binds | – | – | – | – | –
2 | Zinc finger protein 638 (ZNF638) (from UniProt Q14966 1-1978) | binds | binds | binds | binds | – | –
3 | Ubiquitin-specific peptidase 7 (USP7) (from UniProt Q93009 1-1102) (enzyme) | – | – | – | binds | binds | binds
